According to paper PMC11092800:
Results are given in words; binding and its absence hold for the method and conditions named. In cells and extracts the contact can be indirect. Some results given as binding are weak or reduced against the parent protein; the word gives no strength.

Chains of the proteins cited; added tags and fusions are not shown. Lines headed by an entry give the natural chain unless they say otherwise; changes in a name come on top.
UniProt P16520: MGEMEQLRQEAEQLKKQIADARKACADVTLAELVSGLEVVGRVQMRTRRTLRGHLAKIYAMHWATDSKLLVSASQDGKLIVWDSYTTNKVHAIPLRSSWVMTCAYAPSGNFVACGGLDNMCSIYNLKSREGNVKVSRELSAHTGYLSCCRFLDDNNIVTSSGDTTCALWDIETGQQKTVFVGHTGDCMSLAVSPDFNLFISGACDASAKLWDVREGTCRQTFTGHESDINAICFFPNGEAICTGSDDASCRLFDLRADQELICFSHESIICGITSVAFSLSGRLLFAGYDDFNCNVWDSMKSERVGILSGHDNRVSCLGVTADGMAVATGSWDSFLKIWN
UniProt O14610: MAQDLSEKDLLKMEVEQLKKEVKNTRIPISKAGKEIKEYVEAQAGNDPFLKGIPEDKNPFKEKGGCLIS
UniProt P63096: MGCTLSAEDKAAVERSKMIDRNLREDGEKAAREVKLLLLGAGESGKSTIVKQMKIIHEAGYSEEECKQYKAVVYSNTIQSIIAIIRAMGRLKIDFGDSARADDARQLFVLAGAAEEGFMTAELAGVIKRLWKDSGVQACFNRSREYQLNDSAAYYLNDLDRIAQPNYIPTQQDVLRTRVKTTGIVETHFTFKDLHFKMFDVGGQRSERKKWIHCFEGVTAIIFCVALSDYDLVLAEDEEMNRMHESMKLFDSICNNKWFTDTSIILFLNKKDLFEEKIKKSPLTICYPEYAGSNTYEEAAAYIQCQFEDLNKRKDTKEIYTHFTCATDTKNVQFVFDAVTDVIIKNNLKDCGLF

Target: Gβγ (Gβ3 and γ9-GFP fusion) (human) (UniProt P16520+O14610)
Test: FRET or BRET; HEK293T cells co-transfected 1:1:1:1 with neurotensin receptor, Gα-RLuc8, Gβ and Gγ-GFP2; coelenterazine 400a; neurotensin dose series for 5 min; BRET ratio GFP2 (510 nm) over RLuc8 (395 nm); net BRET read as receptor-mediated dissociation of Gαi from Gβγ; intracellular pH lowered (7.2 to 6.7-6.85) by extracellular pH or FCCP

binding	Substance
binds	Full-length human Gαi containing Renilla luciferase (Gα-RLuc8), wild type (from UniProt P63096 1-354)
binds	Gαi double variant (E236L/D237G) containing Renilla luciferase (from UniProt P63096 1-354)
